Data reported in patent US20120034212A1 (AstraZeneca / MedImmune, published 2012).
These are yes or no findings as the source states them, for the method shown. Some binding calls cover weakened binding; strength is not graded here.

Protein sequences, listed by entry. Tags and fused reporters are not part of them. Lines headed by an entry give the natural chain unless they say otherwise; changes in a name come on top. Residues count along the entry.
UniProt P05231: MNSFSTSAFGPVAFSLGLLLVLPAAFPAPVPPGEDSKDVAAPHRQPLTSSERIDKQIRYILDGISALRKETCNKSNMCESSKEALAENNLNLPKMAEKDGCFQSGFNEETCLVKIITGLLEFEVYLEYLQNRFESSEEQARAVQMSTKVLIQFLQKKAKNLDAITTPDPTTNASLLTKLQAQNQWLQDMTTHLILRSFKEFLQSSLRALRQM
UniProt P79341, residues 28-212: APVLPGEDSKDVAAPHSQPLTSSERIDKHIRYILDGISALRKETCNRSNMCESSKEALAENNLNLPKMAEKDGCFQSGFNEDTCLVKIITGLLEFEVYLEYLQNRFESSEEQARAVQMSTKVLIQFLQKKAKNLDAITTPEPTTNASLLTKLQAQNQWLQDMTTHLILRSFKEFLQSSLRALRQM

What was measured:
recombinant human IL-6 [1] = biological target: T1, recombinant human IL-6 (human, UniProt P05231 30-212); assay: assay not named; Example 1 summarises WO 2008/065378
[2] = biological target: cynomolgus IL-6 (cynomolgus) (UniProt P79341); assay: as above
recombinant human IL-6 [3] = biological target: T1, recombinant human IL-6; assay: ELISA, rhuIL-6 as capture reagent
recombinant human IL-6 [4] = biological target: T1, recombinant human IL-6; assay: ELISA, E. coli derived recombinant IL-6 as capture reagent (FIG. 2)

Measured: binding

B1: Antibody 18 (antibody, V domains shown)
VH: EVQLVESGGGLVQPGGSLRLSCAASGFTISSNYMIWVRQAPGKGLEWVSDLYYYAGDTYYADSVKGRFTMSRDISKNTVYLQMNSLRAEDTAVYYCARWADDHPPWIDLWGRGTLVTVSS
VL: DIQMTQSPSTLSASVGDRVTITCRASQGISSWLAWYQQKPGKAPKVLIYKASTLESGVPSRFSGSGSGTEFTLTISSLQPDDFATYYCQQSWLGGSFGQGTKLEIK
notes: Human anti-IL-6 IgG1 with a wild type Fc region; It is the parent of Antibody 18E; also called Ab 18
binds: recombinant human IL-6 [1] | [2] | recombinant human IL-6 [3] | recombinant human IL-6 [4]
